Experimental data published in PMC11335345.
These are yes or no findings as the source states them, for the method shown. Binding seen in cells or lysates may run through a third protein.

Sequences of proteins named here, by UniProt entry; tags and fusion partners are left off. A change or cut given only in a name is not applied to a line headed by its entry.
UniProt Q9WTX5: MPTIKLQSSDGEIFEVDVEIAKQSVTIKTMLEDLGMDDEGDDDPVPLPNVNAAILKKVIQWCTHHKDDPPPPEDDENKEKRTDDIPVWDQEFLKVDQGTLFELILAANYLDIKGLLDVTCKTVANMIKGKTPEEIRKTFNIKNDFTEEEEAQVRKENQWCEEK
UniProt Q9D417: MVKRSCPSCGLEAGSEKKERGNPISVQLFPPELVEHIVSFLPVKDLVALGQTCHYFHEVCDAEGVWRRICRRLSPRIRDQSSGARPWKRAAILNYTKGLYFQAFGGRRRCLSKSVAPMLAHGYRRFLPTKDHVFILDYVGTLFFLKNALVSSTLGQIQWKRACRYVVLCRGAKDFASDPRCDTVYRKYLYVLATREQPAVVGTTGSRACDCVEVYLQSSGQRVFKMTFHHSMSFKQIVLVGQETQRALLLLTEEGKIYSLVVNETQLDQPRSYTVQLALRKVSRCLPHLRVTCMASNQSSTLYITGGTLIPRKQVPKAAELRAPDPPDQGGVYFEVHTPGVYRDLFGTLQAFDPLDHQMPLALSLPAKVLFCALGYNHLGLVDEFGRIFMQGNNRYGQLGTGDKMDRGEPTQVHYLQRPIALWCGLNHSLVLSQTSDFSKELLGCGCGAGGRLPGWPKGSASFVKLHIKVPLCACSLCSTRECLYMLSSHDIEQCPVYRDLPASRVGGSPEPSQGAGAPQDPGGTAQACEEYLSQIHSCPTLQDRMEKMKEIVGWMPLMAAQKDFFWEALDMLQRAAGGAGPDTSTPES

Target: SKP1 tagged with 1D4 (mouse) (UniProt Q9WTX5)
Experiment: co-IP; Fbxo24 (WT or ΔF)-FLAG co-expressed with Skp1-1D4 in HEK293T cells; 1% Triton X-100 lysis buffer (50 mM Tris-HCl pH 7.4, 150 mM NaCl); IP with anti-1D4 or anti-FLAG antibody on Protein G magnetic beads, 1 hr at 4°C; immunoblotting

- binding: no binding
Substance: FBXO24 tagged with 3×FLAG, without the F-box domain (ΔF) (from UniProt Q9D417)
